These are yes or no findings as the source states them, for the method shown. In cells and extracts the contact can be indirect. Some binding calls cover weakened binding; strength is not graded here. Sequences can lack the tags named with a protein.
Biological target: T1, hemagglutinin (HA)-tagged SMYD5 (SET and MYND domain-containing protein 5) (UniProt Q6GMV2)
T1 sequence: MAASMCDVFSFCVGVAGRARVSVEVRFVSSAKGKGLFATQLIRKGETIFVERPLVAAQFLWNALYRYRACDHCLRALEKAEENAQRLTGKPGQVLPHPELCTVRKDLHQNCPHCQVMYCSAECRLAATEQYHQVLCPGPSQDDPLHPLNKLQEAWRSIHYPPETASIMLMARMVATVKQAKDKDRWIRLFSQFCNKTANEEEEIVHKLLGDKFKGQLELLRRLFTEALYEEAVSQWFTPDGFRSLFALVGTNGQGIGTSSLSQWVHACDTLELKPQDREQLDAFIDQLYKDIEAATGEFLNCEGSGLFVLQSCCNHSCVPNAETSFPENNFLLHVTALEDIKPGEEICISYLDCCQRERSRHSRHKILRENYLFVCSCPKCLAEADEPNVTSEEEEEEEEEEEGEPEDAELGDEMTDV
Assay: co-IP

B1: Flag-tagged PGC-1α (peroxisome proliferator-activated receptor gamma coactivator 1 alpha) (protein, UniProt O70343 1-797)
chain: MAWDMCSQDSVWSDIECAALVGEDQPLCPDLPELDLSELDVNDLDTDSFLGGLKWCSDQSEIISNQYNNEPANIFEKIDEENEANLLAVLTETLDSLPVDEDGLPSFDALTDGAVTTDNEASPSSMPDGTPPPQEAEEPSLLKKLLLAPANTQLSYNECSGLSTQNHAANHTHRIRTNPAIVKTENSWSNKAKSICQQQKPQRRPCSELLKYLTTNDDPPHTKPTENRNSSRDKCASKKKSHTQPQSQHAQAKPTTLSLPLTPESPNDPKGSPFENKTIERTLSVELSGTAGLTPPTTPPHKANQDNPFKASPKLKPSCKTVVPPPTKRARYSECSGTQGSHSTKKGPEQSELYAQLSKSSGLSRGHEERKTKRPSLRLFGDHDYCQSLNSKTDILINISQELQDSRQLDFKDASCDWQGHICSSTDSGQCYLRETLEASKQVSPCSTRKQLQDQEIRAELNKHFGHPCQAVFDDKSDKTSELRDGDFSNEQFSKLPVFINSGLAMDGLFDDSEDESDKLSYPWDGTQPYSLFDVSPSCSSFNSPCRDSVSPPKSLFSQRPQRMRSRSRSFSRHRSCSRSPYSRSRSRSPGSRSSSRSCYYYESSHYRHRTHRNSPLYVRSRSRSPYSRRPRYDSYEAYEHERLKRDEYRKEHEKRESERAKQRERQKQKAIEERRVIYVGKIRPDTTRTELRDRFEVFGEIEECTVNLRDDGDSYGFITYRYTCDAFAALENGYTLRRSNETDFELYFCGRKQFFKSNYADLDTNSDDFDPASTKSKYDSLDFDSLLKEAQRSLRR
  binding: binds

— paper doi:10.1101/2020.11.16.385765
